Source: PubChem BioAssay AID1347422 (Sanford-Burnham Center for Chemical Genomics, 2020)
The full ranking holds about 1,000 compounds; the median of “thermal shift dTm” is about 0.19, and the highest 2% start at about 1.7. The list shows a part of the results. Activity calls are given as the source filed them.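 How the source made its calls: active means mean rise in melting temperature of at least 1 degC over same-plate control wells; inactive means below that, where a call was filed.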

By UniProt entry, the sequences of proteins in these tests, tags left out. Where a name states a change or a piece, a line headed by the entry shows the natural chain unless it says otherwise.
UniProt O00391: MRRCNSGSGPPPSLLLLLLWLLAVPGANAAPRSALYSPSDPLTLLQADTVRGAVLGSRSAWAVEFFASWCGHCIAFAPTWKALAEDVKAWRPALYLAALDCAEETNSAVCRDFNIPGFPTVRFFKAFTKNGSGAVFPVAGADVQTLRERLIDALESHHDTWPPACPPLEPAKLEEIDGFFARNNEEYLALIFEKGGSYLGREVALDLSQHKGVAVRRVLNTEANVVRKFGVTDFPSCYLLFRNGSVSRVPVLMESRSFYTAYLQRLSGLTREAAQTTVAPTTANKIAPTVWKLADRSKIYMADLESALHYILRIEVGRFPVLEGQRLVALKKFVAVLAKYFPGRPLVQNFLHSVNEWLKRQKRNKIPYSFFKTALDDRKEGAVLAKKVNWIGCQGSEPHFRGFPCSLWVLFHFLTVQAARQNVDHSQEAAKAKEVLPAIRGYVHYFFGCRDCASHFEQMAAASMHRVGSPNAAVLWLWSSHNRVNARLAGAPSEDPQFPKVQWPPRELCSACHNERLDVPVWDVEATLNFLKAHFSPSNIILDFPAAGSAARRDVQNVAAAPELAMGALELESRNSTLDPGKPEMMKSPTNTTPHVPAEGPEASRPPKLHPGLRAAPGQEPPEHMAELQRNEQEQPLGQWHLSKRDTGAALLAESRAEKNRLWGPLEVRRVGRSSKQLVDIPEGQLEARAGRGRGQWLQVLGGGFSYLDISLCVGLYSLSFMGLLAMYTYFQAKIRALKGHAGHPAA

molecular target: Sulfhydryl oxidase 1 (Homo sapiens) (UniProt O00391); assay: QSOX1 binders by thermal stabilization, confirmation, QSOX1 inhibitor project, biophysical, protein thermal shift, single concentration (AID 1347422); details: recombinant hQSOX1 thermal shift, Sypro Orange, at 25 µM, stronger effect = higher value;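 further: dTm is compound Tm minus mean Tm of DMSO-only wells on that plate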

SMILES	thermal shift dTm
COc1ccc(NC(=O)c2ccoc2)cc1Cl	0.23 °C
Cc1ccccc1Cn1cc(NC(=O)C2CC(c3ccc(Cl)cc3)=NO2)cn1 (stereo not given)	0.35 °C
Cc1ccc(C(=O)Nc2ccc(S(=O)(=O)N3CCc4ccccc43)cc2)o1	active: 1.08 °C
COc1cc2c(cc1NC(=O)C1CC1)oc1ccccc12	0.04 °C
N#Cc1c(-c2ccco2)nc(SCc2ccc(F)cc2)[nH]c1=O	active: 1.21 °C
Fc1cccc(NC(=S)Nc2ccc(Oc3ccccc3)cc2)c1	0.73 °C
CCC(=O)Nc1cccc(NC(=O)/C=C/c2ccc(C(C)C)cc2)c1	inactive: -0.03 °C
CC(Cc1cccnc1)Nc1nncc(-c2cccc(F)c2)n1 (stereo not given)	inactive: 0 °C
O=C(Nc1cccc(-c2ccco2)c1)C1CCN(C(=O)CCc2ccco2)CC1	active: 1.03 °C
CCc1ccc(NC(=O)Nc2ccncc2)cc1	active: 1.68 °C
CC(=O)Cc1nsc(NC(=O)c2ccc(-c3ccc(Cl)c(Cl)c3)o2)n1	0.15 °C
O=C(Nc1ccc(Cl)cc1)c1cccc(N2C(=O)c3cccnc3C2=O)c1	0.29 °C
Cc1ccc2cccc(OCCCOc3ccc(Br)cc3Cl)c2n1	0.12 °C
COc1cc(/C=C/c2ccc3ccccc3n2)cc(Cl)c1OC(C)=O	0.25 °C
CC(C)(C)c1ccc(OCC(=O)Nc2ccc(Nc3ccccc3)cc2)cc1	inactive: -0.13 °C
C=CCSC1=N/C(=C\c2ccc(-c3ccc(Cl)cc3)o2)C(=O)S1	0.91 °C
COc1cc(Cl)c(S(=O)(=O)Nc2ccc3cn[nH]c3c2)cc1Cl	0.42 °C
CCc1ccc(OCCNC(=O)c2cccc(I)c2)cc1	0.17 °C
CC(C)CC(=O)Nc1ccc(C(=O)Nc2cccc(O)c2)cc1	0.51 °C
O=C(NCCc1ccccc1)c1ccc(NC(=O)C2CC2)cc1	0.04 °C
Cc1ccc(NC(=O)Nc2ccc3snnc3c2)cc1	inactive: -0.45 °C
CCCNC(=O)c1cccc(NC(=O)Nc2ccccc2)c1	inactive: -0.19 °C
CC(C)Oc1cccc(NC(=O)Nc2ccccc2)c1	inactive: -0.74 °C
COc1cc(OC)c(NC(=O)CSc2nc(-c3ccccc3)cc(=O)[nH]2)cc1Cl	0.06 °C
Cc1cc(=O)oc2cc(NC(=S)NCCC(c3ccccc3)c3ccccc3)ccc12	0.16 °C
Cc1cc(NS(=O)(=O)c2ccc(NC(=O)c3oc4ccccc4c3C)cc2)no1	0.38 °C
O=C(NCCC1=CCCCC1)c1cc(-c2ccccc2)nc2ccccc12	0.72 °C
COc1cccc(OCCOc2ccc(C(C)(C)C)cc2)c1	0.11 °C
O=S(=O)(NCCSC1CCCCC1)c1ccc(Cl)cc1	0.11 °C
O=C(/C=C/c1ccco1)Nc1ccc(Br)cc1Cl	0.54 °C

At a glance, some entries already given:
SMILES	thermal shift dTm
Fc1cccc(NC(=S)Nc2ccc(Oc3ccccc3)cc2)c1	0.73 °C
CCC(=O)Nc1cccc(NC(=O)/C=C/c2ccc(C(C)C)cc2)c1	inactive: -0.03 °C
CC(Cc1cccnc1)Nc1nncc(-c2cccc(F)c2)n1 (stereo not given)	inactive: 0 °C
O=C(Nc1cccc(-c2ccco2)c1)C1CCN(C(=O)CCc2ccco2)CC1	active: 1.03 °C
CCc1ccc(NC(=O)Nc2ccncc2)cc1	active: 1.68 °C
CC(=O)Cc1nsc(NC(=O)c2ccc(-c3ccc(Cl)c(Cl)c3)o2)n1	0.15 °C
O=C(Nc1ccc(Cl)cc1)c1cccc(N2C(=O)c3cccnc3C2=O)c1	0.29 °C
